Experimental data published in PubChem BioAssay AID540276 (National Center for Advancing Translational Sciences (NCATS), 2011).
Values joined by “and” are separate entries in the source; they are usually repeats but may differ in a detail not shown here. Identical values can stand only once. About 5,400 (1.8%) of roughly 300,000 compounds were called active. Inconclusive means that the source gave no clear call. Such entries were picked first, then a sample of the others. The call rests on the fitted dose curve; tested in HEK293 cells. Where the call is inconclusive, the potency comes from a doubtful curve fit.

Assay: qHTS for inhibitors of binding or entry into cells for Marburg Virus
Conditions: Marburg virus pseudotyped entry inhibition, cell reporter; activity change, negative = inhibition: at 37.8 µM (top of the series) unless noted
On the % scale 0 is the no-effect control and ±100 the full control effect; potency means the concentration at half of the fitted maximal effect.

| SMILES | Potency | activity change, negative = inhibition |
| --- | --- | --- |
| O=[N+]([O-])c1ccc(S(=O)(=O)NN=Cc2ccc3c(c2)OCO3)cc1 | inconclusive: 3.98 µM [inhibitor, partial curve, poor fit] | – |
| CC(C)(C)c1cc(N2CCOCC2)n2ncc(-c3ccc(Cl)cc3)c2n1 | inconclusive: 10 µM [activator, partial curve, poor fit] | – |
| Cn1c(=O)c2c(nc(Br)n2CCc2ccccc2)n(C)c1=O | inconclusive: 1.26 µM [activator, partial curve, poor fit] | – |
| Cc1nn(-c2ccccc2)c(C)c1/C=N\N1CCN(c2ccc(Cl)cc2)CC1 | – | inactive: -1.5% [at 46.1 µM] |
| CCc1noc(C)c1C(=O)Nc1nc(-c2cc(OC)ccc2OC)cs1 | inconclusive: 5.01 µM [activator, single point] | – |
| Cc1ccc(C)c(NC(=S)c2nc3ccccc3s2)c1 | – | inactive: 2.94% |
| CCc1c(C)nc(SCC(=O)CC(=O)OC(C)C)c(C#N)c1C | – | inactive: 0.466% |
| COc1ccccc1C/C(N)=N/OC(=O)c1cccc([N+](=O)[O-])c1 | inconclusive: 11.2 µM [inhibitor, single point] | – |
| Cc1cccc(NC(=S)NC(C)(C)CC(C)(C)C)c1 | inconclusive: 14.1 µM [inhibitor, single point] | – |
| COc1cc(S(=O)(=O)NCCOC23CC4CC(CC(C4)C2)C3)c(OC)cc1Cl | inconclusive: 17.8 µM [inhibitor, single point] | – |
| N#Cc1c(/N=C/c2ccc(Br)s2)sc2c1CCC2 | inconclusive: 3.55 µM [activator, partial curve, poor fit] | – |
| CCOC(=O)c1coc(CNC(=O)c2c(C)oc3c2CCCC3)c1 | inconclusive: 10 µM [inhibitor, partial curve, poor fit] | – |
| NC(=O)C1(Nc2ccc(-c3ccccc3)cc2)CCCC1 | inconclusive: 2.51 µM [activator, single point] | – |
| COc1ccc(-n2nc(C(=O)NCC(=O)N3CCN(c4ccccc4)CC3)c3ccccc3c2=O)c(OC)c1 | inconclusive: 10 µM [inhibitor, partial curve, poor fit] | – |
| COc1cccc2c1N1C(=O)c3c(C(=O)O)cccc3C1CC2(C)C (centres undefined) | inconclusive: 14.1 µM [inhibitor, single point] | – |
| Cc1c(CN2CCc3c([nH]c4ccccc34)C2C2CCCCC2)cnn1C (centres undefined) | inconclusive: 5.62 µM [inhibitor, full curve, poor fit] | – |
| CCOC(=O)C1CCCN(C(=O)c2cc3nc(-c4ccc5c(c4)OCO5)cc(C(F)(F)F)n3n2)C1 (centres undefined) | inconclusive: 29.1 µM [inhibitor, single point] | – |
| Cc1nnc(SCC(=O)N2CCc3ccccc3C2)n1-c1ccccc1 | inconclusive: 31.6 µM [activator, single point] | – |
| COc1cc(C2C(C#N)=C(N)N(Nc3ccccc3)C3=C2C(=O)CC(C)(C)C3)ccc1OCc1ccccc1 (centres undefined) | inconclusive: 11.2 µM [inhibitor, partial curve, poor fit] | – |
| CCn1c2ccccc2c2cc(NC(=O)c3cccc([N+](=O)[O-])c3)ccc21 | inconclusive: 7.94 µM [inhibitor, partial curve, poor fit] | – |

| SMILES | Potency | activity change, negative = inhibition |
| --- | --- | --- |
| CN(Cc1ccccc1)C(=S)NC(=O)c1ccc(-c2ccccc2)cc1 | inconclusive: 8.91 µM [inhibitor, partial curve, poor fit] | – |
| COc1ccc(-c2ccccc2)cc1NC(=O)c1ccncc1 | inconclusive: 5.62 µM [activator, single point] | – |
| CCOc1ccccc1N1CCN(c2ncnc3scc(-c4ccc(OC)cc4)c23)CC1 | inconclusive: 35.5 µM [inhibitor, single point] | – |
| Cc1ccccc1CC(=O)NCC1CCCCC1 | – | inactive: -0.0875% [at 46.1 µM] |
| COC(=O)c1ccc(CSc2nc(-c3ccco3)cc(C(F)(F)F)n2)o1 | inconclusive: 7.94 µM [inhibitor, partial curve] | – |
| O=C(NNC(=O)C12CC3CC(CC(Cl)(C3)C1)C2)c1ccncc1 | inconclusive: 15.8 µM [activator, single point] | – |
| C=CC[N+](C)(C)CCCNC(=O)/C=N/O | inconclusive: 0.731 µM [activator, partial curve, poor fit] | – |
| CCc1nnc(NC(=O)c2nc(S(=O)(=O)Cc3ccc(C)cc3)ncc2Cl)s1 | inconclusive: 35.5 µM [inhibitor, single point] and inconclusive: 22.4 µM [inhibitor, single point] | – |
| COc1ccc(-n2cnnc2SCc2ncc(-c3ccccc3)o2)cc1 | – | inactive: 4.41% |
| COc1cc(C(=O)NCC(=O)NCCN2C(=O)S/C(=C\c3ccc4c(c3)OCO4)C2=O)cc(OC)c1OC | inconclusive: 0.631 µM [inhibitor, partial curve, poor fit] | – |
| O=C(Nc1ccc(-c2noc(COc3ccccc3Cl)n2)cc1)c1ccco1 | inconclusive: 0.1 µM [activator, partial curve, poor fit] | – |
| Cc1ccc(NC(=O)c2ccc3nccnc3c2)c(C)c1 | inconclusive: 8.91 µM [activator, partial curve] | – |
| CC(/C=N/Nc1ncc(C)c(=O)[nH]1)=C\c1ccccc1 | inconclusive: 10 µM [inhibitor, partial curve, poor fit] | – |
| O=C(c1ccc(N2CCOCC2)cc1)c1cccs1 | inconclusive: 32.6 µM [inhibitor, single point] | – |
| CC(C)CNS(=O)(=O)c1ccc(CCC(=O)N2CCN(Cc3ccc4c(c3)OCO4)CC2)cc1 | inconclusive: 7.94 µM [inhibitor, partial curve, poor fit] | – |
| Fc1cccc(F)c1-c1nc(-c2ccc(Cl)cc2)no1 | inconclusive: 3.16 µM [activator, single point] | – |
| CCn1c(=O)c2cc(C(=O)NCCOC)sc2c2ccccc21 | – | inactive: 9.3% [at 46.1 µM] |
| COc1ccccc1C1CCCN1Cc1nc(-c2cc3c(cc2Cl)OCO3)oc1C (centres undefined) | inconclusive: 12.6 µM [inhibitor, partial curve, poor fit] | – |
| Cc1ccc(C(=O)NC(C#N)=C(Cl)Cl)cc1 | inconclusive: 2.82 µM [inhibitor, full curve, poor fit] | – |
